Data as given in PubChem BioAssay AID493246 (Drosophila RNAi Screening Center, 2011).
The deposit covers about 21,000 reagents; this is a random part of those that have a named target and a result. Of all reagents, 429 (2%) are marked active. 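Values are raw and not normalised between plates; calls rest on per-plate z-scores that were not deposited.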 Names joined by + are all predicted targets of the reagent. Not given: the amount of reagent, the time to read-out.

Purpose: 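Genes fly cells need to grow and stay alive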 (primary screen)
System: Drosophila Kc and S2R+ cells
Knock-down reagent: long dsRNA against Drosophila genes
Read-out: 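Raw, unnormalised count of remaining cells in each well; per-plate z-scores of cell number underlie the calls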
Scale: Kc cell number and S2R+ cell number: higher = more cells remaining
Hit rule: 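Active when the per-plate z-score of cell number is 3 or more in the direction of fewer cells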

The first 2 entries, to show the layout:
gene | DRSC id | Kc cell number, rep 1 | Kc cell number, rep 2 | S2R+ cell number, rep 1 | S2R+ cell number, rep 2 | outcome
trh | DRSC08355 | 1.20e6 | 1.15e6 | 1.08e6 | 1.25e6 | inactive
trh | DRSC08739 | 1.19e6 | 1.23e6 | 1.10e6 | 1.26e6 | inactive

The list itself, repeating the preview:
gene | DRSC id | Kc cell number, rep 1 | Kc cell number, rep 2 | S2R+ cell number, rep 1 | S2R+ cell number, rep 2 | outcome
trh | DRSC08355 | 1.20e6 | 1.15e6 | 1.08e6 | 1.25e6 | inactive
trh | DRSC08739 | 1.19e6 | 1.23e6 | 1.10e6 | 1.26e6 | inactive
CG13331 | DRSC06366 | 1.66e6 | 1.71e6 | 1.46e6 | 1.55e6 | inactive
Grik | DRSC15846 | 1.59e6 | 1.72e6 | 1.21e6 | 1.32e6 | inactive
Grik | DRSC15847 | 1.15e6 | 1.13e6 | 1.11e6 | 1.21e6 | inactive
Cdc6 | DRSC10563 | 1.22e6 | 1.31e6 | 1.11e6 | 1.07e6 | inactive
Saysd1 | DRSC14664 | 1.43e6 | 1.46e6 | 1.00e6 | 1.09e6 | inactive
CG31093 | DRSC15689 | 1.47e6 | 1.42e6 | 9.24e5 | 1.00e6 | inactive
CG7101 | DRSC20023 | 1.59e6 | 1.60e6 | 1.17e6 | 1.29e6 | inactive
CG34223 | DRSC05268 | 1.48e6 | 1.44e6 | 1.00e6 | 1.11e6 | inactive
att-ORFB + DPCoAC | DRSC15556 | 1.47e6 | 1.45e6 | 1.06e6 | 1.13e6 | inactive
Chd1 | DRSC00745 | 1.16e6 | 1.23e6 | 9.46e5 | 1.02e6 | inactive
CG11356 | DRSC19401 | 1.80e6 | 1.66e6 | 1.14e6 | 1.22e6 | inactive
hyx | DRSC14462 | 1.33e6 | 1.46e6 | 9.55e5 | 1.03e6 | inactive
CG32986 | DRSC02509 | 1.67e6 | 1.60e6 | 1.25e6 | 1.40e6 | inactive
CG17528 | DRSC07761 | 1.44e6 | 1.38e6 | 9.68e5 | 1.20e6 | inactive
CG30054 | DRSC05354 | 1.59e6 | 1.62e6 | 1.05e6 | 1.25e6 | inactive
CG8519 | DRSC10985 | 1.52e6 | 1.69e6 | 1.11e6 | 1.14e6 | inactive
CaMKI | DRSC17162 | 5.52e5 | – | 8.49e5 | – | inactive
GstE14 | DRSC06881 | 1.55e6 | 1.56e6 | 1.17e6 | 1.35e6 | inactive
Teh1 | DRSC14544 | 1.61e6 | 1.68e6 | 1.33e6 | 1.39e6 | inactive
CG44774 | DRSC18342 | 1.60e6 | 1.58e6 | 1.09e6 | 1.25e6 | inactive
Cen | DRSC02704 | 9.05e5 | 1.08e6 | 7.99e5 | 6.57e5 | inactive
CG13605 | DRSC14608 | 1.52e6 | 1.56e6 | 1.15e6 | 1.20e6 | inactive
